Reference: PubChem BioAssay AID850 (SRMLSC, 2007)
The list shows a part of the results, in another mix than the full data. The source made the active and inactive calls. How the calls were made is not given here.

How the values were obtained:
[1] = concentration-response yeast growth inhibition under permissive conditions, counter-assay for yeast lifespan-shortening chemical project (AID 850); details: Saccharomyces cerevisiae growth inhibition, permissive control; measured here: maximum growth inhibition; at 50 µM; stronger effect = higher value;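 further: growth read as optical density after one day of incubation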
[2] = test system: Saccharomyces cerevisiae growth inhibition, permissive control; test: as above

SMILES: Cc1ccc(-c2cc(C(=O)N3N=C(C(F)F)CC3(O)C(F)F)c3ccccc3n2)cc1C (configuration not stated)
- inhibition [1]: 17.5%
- IC50 [2]: inactive: > 100 µM
